Assay results as given in publication PMC10803552.
These are yes or no findings as the source states them, for the method shown. Binding seen in cells or lysates may run through a third protein. Some entries that bind do so weakly or less than the wild type. For some of these results: Tags and fused reporters may be left off the sequences shown. Blank lines part the entries; values can stand above or below the substance they belong to.

By UniProt entry, the sequences of proteins in these tests, tags left out. Residues count along the entry.
UniProt P23458: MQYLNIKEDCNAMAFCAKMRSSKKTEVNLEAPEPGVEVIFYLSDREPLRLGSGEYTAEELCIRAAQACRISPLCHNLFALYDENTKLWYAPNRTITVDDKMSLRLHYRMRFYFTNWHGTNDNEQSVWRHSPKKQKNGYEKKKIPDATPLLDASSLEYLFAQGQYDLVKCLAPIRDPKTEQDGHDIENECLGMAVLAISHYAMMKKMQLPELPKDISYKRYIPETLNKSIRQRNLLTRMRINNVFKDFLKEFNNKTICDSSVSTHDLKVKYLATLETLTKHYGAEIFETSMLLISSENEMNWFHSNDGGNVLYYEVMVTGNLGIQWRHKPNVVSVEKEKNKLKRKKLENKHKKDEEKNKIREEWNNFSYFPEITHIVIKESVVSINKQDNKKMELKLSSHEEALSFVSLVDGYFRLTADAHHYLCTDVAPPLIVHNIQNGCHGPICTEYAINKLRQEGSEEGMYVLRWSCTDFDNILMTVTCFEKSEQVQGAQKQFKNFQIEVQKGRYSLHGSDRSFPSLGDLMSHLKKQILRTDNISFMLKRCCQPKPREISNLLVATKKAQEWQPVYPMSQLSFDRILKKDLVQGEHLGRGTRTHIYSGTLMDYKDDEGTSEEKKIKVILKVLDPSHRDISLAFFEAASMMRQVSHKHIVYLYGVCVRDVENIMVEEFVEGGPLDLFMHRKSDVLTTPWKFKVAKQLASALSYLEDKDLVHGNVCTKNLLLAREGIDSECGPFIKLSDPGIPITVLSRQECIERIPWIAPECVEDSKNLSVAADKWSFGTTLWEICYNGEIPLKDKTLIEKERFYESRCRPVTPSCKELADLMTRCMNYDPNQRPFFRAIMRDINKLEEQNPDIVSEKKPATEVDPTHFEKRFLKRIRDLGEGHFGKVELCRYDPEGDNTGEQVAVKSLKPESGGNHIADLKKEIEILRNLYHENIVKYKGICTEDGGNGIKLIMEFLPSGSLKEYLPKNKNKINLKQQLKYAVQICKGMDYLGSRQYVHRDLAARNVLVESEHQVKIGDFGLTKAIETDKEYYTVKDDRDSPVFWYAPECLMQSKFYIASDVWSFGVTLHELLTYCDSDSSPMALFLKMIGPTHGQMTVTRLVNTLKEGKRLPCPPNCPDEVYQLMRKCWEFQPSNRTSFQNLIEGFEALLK
UniProt P24394, residues 26-825: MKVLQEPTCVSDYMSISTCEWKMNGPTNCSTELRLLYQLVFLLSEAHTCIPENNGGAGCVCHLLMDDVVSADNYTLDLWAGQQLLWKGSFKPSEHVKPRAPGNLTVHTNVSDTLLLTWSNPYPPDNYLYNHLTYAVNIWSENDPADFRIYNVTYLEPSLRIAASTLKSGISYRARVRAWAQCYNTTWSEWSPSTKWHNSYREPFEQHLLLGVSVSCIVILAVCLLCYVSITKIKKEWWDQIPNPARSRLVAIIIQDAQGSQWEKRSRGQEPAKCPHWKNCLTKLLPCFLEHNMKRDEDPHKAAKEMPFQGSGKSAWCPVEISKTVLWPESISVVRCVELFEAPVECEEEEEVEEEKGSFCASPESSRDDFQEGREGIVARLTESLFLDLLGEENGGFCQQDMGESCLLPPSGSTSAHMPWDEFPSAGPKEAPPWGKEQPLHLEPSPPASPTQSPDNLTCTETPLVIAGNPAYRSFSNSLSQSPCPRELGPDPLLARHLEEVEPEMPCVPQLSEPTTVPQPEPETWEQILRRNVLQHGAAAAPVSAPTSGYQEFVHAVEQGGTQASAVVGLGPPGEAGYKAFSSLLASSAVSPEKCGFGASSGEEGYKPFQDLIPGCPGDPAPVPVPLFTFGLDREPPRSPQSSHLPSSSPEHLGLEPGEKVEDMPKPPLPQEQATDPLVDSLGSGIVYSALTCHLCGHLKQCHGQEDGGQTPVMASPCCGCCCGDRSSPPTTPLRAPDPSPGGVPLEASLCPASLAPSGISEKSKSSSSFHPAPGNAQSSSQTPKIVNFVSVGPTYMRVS
UniProt P52332: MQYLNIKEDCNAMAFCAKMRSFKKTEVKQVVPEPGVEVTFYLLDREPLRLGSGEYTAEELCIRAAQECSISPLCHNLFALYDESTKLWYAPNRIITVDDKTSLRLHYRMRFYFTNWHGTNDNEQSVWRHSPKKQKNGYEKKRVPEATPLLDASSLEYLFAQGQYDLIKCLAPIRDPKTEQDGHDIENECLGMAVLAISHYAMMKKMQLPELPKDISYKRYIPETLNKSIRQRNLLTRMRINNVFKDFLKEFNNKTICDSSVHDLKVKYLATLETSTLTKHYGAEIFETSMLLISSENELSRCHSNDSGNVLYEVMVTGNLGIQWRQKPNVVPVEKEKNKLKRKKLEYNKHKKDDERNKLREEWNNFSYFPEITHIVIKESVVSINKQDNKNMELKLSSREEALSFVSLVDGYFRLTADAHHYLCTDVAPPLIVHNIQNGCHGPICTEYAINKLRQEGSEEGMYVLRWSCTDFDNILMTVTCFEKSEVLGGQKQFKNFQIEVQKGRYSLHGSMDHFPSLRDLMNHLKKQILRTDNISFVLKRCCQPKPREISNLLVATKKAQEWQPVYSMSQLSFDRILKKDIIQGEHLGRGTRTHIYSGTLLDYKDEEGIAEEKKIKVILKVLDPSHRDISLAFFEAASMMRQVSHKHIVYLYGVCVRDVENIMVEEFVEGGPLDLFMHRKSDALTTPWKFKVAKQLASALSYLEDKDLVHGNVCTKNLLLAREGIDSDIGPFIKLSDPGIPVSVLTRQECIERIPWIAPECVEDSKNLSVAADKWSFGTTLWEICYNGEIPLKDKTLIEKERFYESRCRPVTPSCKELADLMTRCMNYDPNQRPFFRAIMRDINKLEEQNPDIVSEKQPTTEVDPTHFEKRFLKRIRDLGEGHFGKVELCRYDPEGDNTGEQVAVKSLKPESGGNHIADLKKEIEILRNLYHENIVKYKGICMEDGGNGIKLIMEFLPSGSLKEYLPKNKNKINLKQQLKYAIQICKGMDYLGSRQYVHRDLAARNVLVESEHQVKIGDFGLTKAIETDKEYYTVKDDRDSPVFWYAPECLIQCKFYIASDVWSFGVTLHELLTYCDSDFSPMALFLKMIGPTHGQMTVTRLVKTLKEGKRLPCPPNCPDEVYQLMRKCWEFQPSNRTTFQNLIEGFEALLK
UniProt Q14764: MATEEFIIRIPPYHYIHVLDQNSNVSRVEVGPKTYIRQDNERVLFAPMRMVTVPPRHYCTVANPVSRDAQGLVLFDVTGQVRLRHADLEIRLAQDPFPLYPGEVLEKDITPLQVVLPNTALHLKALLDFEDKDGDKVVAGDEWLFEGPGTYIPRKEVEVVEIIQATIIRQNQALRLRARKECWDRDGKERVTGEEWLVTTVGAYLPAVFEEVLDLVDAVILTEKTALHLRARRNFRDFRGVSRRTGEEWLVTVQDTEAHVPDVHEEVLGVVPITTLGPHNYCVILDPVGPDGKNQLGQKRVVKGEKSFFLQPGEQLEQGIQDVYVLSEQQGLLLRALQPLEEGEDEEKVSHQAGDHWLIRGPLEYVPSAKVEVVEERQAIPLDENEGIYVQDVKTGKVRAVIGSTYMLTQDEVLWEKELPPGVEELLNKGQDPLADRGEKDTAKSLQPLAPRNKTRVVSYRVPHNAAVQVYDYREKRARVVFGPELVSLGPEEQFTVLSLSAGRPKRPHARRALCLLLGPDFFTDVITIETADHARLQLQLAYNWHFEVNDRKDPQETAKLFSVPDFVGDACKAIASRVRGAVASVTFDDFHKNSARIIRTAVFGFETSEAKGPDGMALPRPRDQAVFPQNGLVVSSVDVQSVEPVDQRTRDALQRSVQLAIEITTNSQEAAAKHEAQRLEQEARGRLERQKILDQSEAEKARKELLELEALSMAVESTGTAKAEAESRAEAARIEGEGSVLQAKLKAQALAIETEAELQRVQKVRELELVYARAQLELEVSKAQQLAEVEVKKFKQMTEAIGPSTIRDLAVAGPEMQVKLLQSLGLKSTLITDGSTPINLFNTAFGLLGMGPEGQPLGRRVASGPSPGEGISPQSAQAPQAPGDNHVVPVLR

Key:
[1] = target: T1, STAT6, endogenous in mouse BMDMs (mouse (endogenous in BMDMs)) (UniProt P52633); assay: co-IP; endogenous Co-IP in mouse BMDMs (Wt; for JAK1-STAT6 also Mvp-/-), stimulated with medium or IL-4 for 30 min; immunoblot
T1 sequence: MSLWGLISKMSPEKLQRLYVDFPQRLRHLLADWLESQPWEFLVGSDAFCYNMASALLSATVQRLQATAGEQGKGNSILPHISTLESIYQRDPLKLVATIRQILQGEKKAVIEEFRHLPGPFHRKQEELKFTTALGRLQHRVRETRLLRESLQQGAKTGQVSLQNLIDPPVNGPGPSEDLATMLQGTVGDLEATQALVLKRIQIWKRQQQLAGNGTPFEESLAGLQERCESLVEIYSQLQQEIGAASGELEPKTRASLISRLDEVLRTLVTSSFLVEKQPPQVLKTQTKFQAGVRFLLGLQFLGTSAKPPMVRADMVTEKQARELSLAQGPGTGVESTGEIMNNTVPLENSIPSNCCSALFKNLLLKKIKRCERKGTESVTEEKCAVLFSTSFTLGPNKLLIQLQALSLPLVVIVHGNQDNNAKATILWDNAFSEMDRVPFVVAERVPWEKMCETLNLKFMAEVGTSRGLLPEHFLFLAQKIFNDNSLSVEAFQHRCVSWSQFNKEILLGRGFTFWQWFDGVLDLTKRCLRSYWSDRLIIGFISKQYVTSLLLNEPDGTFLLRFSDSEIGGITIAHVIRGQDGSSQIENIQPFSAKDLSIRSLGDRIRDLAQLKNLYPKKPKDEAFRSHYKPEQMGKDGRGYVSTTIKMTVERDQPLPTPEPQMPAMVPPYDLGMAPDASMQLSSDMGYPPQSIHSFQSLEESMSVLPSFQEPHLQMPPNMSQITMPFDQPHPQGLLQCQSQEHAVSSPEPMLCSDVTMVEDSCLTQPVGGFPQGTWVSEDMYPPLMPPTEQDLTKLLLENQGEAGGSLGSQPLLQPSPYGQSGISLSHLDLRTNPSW

[2] = target: T2, Flag-tagged STAT6 (signal transducer and activator of transcription 6) (UniProt P42226); assay: co-IP; HEK293T co-transfected for 36 h; NP-40 lysis buffer (150 mM NaCl, 20 mM Tris-HCl pH 7.4, 1% NP-40); antibody overnight at 4°C, protein A/G agarose; washed five times with NP-40 buffer containing 1 M NaCl; immunoblot
T2 sequence: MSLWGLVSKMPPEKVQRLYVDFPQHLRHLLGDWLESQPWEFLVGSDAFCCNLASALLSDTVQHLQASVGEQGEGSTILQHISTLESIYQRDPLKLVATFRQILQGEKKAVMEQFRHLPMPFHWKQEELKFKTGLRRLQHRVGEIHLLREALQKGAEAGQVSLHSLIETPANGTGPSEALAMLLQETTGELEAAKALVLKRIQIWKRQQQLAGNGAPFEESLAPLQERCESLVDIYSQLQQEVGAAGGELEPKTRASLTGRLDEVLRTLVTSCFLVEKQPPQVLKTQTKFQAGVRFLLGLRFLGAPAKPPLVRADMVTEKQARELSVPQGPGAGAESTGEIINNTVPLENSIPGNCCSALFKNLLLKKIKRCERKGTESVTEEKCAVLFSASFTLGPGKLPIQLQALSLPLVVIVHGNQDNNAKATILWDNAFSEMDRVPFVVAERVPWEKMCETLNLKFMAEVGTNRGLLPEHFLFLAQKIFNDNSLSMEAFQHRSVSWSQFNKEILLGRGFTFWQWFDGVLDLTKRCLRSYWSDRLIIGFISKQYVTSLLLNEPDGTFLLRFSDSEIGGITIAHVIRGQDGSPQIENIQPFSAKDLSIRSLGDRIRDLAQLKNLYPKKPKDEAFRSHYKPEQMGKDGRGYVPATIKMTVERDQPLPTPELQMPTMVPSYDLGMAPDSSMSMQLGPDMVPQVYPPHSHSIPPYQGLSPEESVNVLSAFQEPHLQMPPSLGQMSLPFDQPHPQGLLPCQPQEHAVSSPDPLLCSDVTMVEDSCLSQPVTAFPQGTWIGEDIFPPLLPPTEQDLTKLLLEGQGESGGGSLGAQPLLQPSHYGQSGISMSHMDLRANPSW

Flag-JAK1 = Flag-JAK1 (UniProt P23458); assay: as above
HA-IL-4Rα = HA-IL-4Rα (UniProt P24394); assay: as above

- binding [1]: binds
Substance: JAK1, endogenous in mouse BMDMs (from UniProt P52332 1-1153)

- binding [2]: binds
- binding (Flag-JAK1): binds
Substance: HA-tagged MVP (major vault protein) (from UniProt Q14764 1-893)

- binding (HA-IL-4Rα): no binding
Substance: Flag-MVP (from UniProt Q14764 1-893)
